{"sequences": {"note": "Chains of the proteins cited; added tags and fusions are not shown. Lines headed by an entry give the natural chain unless they say otherwise; changes in a name come on top. A line that says so, or that is headed by a name, gives the form on record, which may keep a tag or linker.", "UniProt Q62976": "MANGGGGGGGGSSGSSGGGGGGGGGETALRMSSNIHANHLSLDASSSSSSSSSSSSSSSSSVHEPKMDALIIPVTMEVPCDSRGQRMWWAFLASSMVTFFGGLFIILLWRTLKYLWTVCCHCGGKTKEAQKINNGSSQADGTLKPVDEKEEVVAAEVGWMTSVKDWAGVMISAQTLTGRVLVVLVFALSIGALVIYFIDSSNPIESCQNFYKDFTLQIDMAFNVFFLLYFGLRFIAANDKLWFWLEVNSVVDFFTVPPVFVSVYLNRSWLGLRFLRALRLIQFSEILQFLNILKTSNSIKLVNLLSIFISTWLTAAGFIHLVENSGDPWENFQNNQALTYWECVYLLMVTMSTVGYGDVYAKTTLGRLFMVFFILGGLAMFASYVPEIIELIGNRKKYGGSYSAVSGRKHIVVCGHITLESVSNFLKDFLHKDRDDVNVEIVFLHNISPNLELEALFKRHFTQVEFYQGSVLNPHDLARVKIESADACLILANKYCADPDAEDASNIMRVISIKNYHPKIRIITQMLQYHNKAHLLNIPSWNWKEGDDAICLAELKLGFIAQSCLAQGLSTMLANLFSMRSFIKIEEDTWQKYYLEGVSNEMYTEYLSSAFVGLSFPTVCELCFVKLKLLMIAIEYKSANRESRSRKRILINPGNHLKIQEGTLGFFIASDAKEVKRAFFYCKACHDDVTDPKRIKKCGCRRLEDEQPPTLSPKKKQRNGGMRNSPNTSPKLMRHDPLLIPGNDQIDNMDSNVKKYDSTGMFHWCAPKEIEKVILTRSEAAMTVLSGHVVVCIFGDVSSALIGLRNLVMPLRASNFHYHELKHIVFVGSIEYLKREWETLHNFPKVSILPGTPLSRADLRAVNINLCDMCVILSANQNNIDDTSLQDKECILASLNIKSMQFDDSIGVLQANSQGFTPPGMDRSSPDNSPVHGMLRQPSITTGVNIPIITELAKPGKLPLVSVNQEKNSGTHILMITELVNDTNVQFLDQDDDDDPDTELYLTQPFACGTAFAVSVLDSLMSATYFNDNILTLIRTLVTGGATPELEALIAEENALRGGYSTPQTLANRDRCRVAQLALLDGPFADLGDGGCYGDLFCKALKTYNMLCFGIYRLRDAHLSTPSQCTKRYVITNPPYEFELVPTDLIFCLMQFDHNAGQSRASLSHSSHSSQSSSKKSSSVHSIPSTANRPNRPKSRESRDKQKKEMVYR", "BKCa channels expressed in HEK293 cells (Q12791, form named)": "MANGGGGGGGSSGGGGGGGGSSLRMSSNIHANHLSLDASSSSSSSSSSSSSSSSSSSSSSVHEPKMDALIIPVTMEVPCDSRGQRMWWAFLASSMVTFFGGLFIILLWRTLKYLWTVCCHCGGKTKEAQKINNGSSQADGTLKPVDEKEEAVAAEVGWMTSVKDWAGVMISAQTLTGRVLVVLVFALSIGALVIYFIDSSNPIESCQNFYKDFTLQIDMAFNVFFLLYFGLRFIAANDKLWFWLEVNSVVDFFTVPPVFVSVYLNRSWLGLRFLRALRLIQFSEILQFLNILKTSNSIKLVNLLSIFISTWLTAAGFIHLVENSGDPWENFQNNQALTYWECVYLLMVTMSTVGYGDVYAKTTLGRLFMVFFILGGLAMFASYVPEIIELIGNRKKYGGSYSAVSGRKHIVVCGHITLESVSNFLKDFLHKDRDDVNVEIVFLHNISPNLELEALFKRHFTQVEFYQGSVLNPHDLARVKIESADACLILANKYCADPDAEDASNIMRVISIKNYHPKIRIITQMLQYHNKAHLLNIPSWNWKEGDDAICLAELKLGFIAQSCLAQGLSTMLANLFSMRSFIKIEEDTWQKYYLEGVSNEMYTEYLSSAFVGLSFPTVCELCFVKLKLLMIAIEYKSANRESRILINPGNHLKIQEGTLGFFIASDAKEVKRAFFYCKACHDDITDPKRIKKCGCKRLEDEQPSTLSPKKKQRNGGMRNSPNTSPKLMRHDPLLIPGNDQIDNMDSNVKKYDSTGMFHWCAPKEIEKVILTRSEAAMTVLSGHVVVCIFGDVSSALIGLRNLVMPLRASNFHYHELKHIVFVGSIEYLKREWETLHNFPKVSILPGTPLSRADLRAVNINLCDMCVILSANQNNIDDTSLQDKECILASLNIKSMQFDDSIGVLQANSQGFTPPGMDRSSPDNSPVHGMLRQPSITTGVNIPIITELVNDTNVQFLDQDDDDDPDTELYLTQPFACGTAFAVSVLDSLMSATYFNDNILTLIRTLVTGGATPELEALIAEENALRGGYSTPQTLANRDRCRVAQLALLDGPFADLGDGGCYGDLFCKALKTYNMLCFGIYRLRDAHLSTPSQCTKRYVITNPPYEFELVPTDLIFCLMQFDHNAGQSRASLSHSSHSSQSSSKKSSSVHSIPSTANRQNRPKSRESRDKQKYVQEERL"}, "source": "paper PMC6721949", "binders": {"B1": {"name": "junctophilin-2 (JP2), endogenous in rat mesenteric artery (protein, UniProt Q2PS20 1-692)", "chain": "MSGGRFDFDDGGAYCGGWEGGKAHGHGLCTGPKGQGEYSGSWNFGFEVAGVYTWPSGNTFEGYWSQGKRHGLGIETKGRWLYKGEWTHGFKGRYGIRQSTNSGAKYEGTWNNGLQDGYGTETYADGGTYQGQFTNGMRHGYGVRQSVPYGMAVVVRSPLRTSLSSLRSEHSNGTVAPDSPAADGPTLPLPPVPRGGFALSLLATAEAARPPGLFTRGALLGRLRRSESRTSLGSQRSRLSFLKSELSSGASDAASTGSLAEGAEGPDDAAAPFDADIDATTTETYMGEWKNDKRSGFGVSERSSGLRYEGEWLDNLRHGYGRTTLPDGHREEGKYRHNVLVKGTKRRVLPLKSNKVRQKVEHGVEGAQRAAAIARQKAEIAASRTSHAKAKAEAAEQAALAANQESNIARTLAKELAPDFYQPGPEYQKRRLLQEILENSESLLEPRERGPGTGLPERPRESPQLHERETPQPEGGPPSPAGTPPQPKRPRPGSSKDGLLSPGAWNGEPGGEGSRPATPSDGAGRRSPARPASEHMAIEALQPPPAPSREPEVALYRGYHSYAVRTGPPEPPPLEDEPEPEPEVPRSDSEPPSPVSATVQEEESPAPRSRVPAKPATLEPKPIVPKAEPKAKARKTEARGLSKAGAKKKGRKEVAQEAEAEVEVEEVPNTVLICMVILLNIGLAILFVHLLT"}, "B2": {"name": "VN-JP2 (full-length JP2 with the N-terminal half of Venus on its N terminus) (protein, UniProt Q9BR39-1 1-696)", "chain": "MSGGRFDFDDGGAYCGGWEGGKAHGHGLCTGPKGQGEYSGSWNFGFEVAGVYTWPSGNTFEGYWSQGKRHGLGIETKGRWLYKGEWTHGFKGRYGIRQSSSSGAKYEGTWNNGLQDGYGTETYADGGTYQGQFTNGMRHGYGVRQSVPYGMAVVVRSPLRTSLSSLRSEHSNGTVAPDSPASPASDGPALPSPAIPRGGFALSLLANAEAAARAPKGGGLFQRGALLGKLRRAESRTSVGSQRSRVSFLKSDLSSGASDAASTASLGEAAEGADEAAPFEADIDATTTETYMGEWKNDKRSGFGVSERSSGLRYEGEWLDNLRHGYGCTTLPDGHREEGKYRHNVLVKDTKRRMLQLKSNKVRQKVEHSVEGAQRAAAIARQKAEIAASRTSHAKAKAEAAEQAALAANQESNIARTLARELAPDFYQPGPEYQKRRLLQEILENSESLLEPPDRGAGAAGLPQPPRESPQLHERETPRPEGGSPSPAGTPPQPKRPRPGVSKDGLLSPGAWNGEPSGEGSRSVTPSEGAGRRSPARPATERMAIEALQAPPAPSREPEVALYQGYHSYAVRTTPPEPPPFEDQPEPEVSGSESAPSSPATAPLQAPTLRGPEPARETPAKLEPKPIIPKAEPRAKARKTEARGLTKAGAKKKARKEAALAAEAEVEVEEVPNTILICMVILLNIGLAILFVHLLT"}, "B3": {"name": "JP2(276-674aa)-VN (domain or fragment, UniProt Q9BR39-1 276-674)", "chain": "AAPFEADIDATTTETYMGEWKNDKRSGFGVSERSSGLRYEGEWLDNLRHGYGCTTLPDGHREEGKYRHNVLVKDTKRRMLQLKSNKVRQKVEHSVEGAQRAAAIARQKAEIAASRTSHAKAKAEAAEQAALAANQESNIARTLARELAPDFYQPGPEYQKRRLLQEILENSESLLEPPDRGAGAAGLPQPPRESPQLHERETPRPEGGSPSPAGTPPQPKRPRPGVSKDGLLSPGAWNGEPSGEGSRSVTPSEGAGRRSPARPATERMAIEALQAPPAPSREPEVALYQGYHSYAVRTTPPEPPPFEDQPEPEVSGSESAPSSPATAPLQAPTLRGPEPARETPAKLEPKPIIPKAEPRAKARKTEARGLTKAGAKKKARKEAALAAEAEVEVEEVPNT"}, "B4": {"name": "GFP-JP2 (protein, UniProt Q9BR39-1 1-696)", "chain": "B2 chain"}}, "key": {"[1]": {"target": "T1, caveolin-1 (Cav1), endogenous in rat mesenteric artery (rat (endogenous in mesenteric artery)) (UniProt P41350)", "T1 sequence": "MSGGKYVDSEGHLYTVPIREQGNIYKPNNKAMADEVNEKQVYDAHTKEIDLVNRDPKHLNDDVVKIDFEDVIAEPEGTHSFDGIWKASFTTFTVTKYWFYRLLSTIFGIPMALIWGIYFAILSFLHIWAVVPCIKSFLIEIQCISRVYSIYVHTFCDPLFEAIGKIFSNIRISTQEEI", "assay": "co-IP; extracts of rat mesenteric artery; anti-Cav1 antibody (10 μg) immobilised on AminoLink Plus Coupling Resin (Pierce Co-IP kit); immunoblot for JP2"}, "[2]": {"target": "large-conductance Ca2+-activated K+ (BKCa) channel, endogenous in rat mesenteric artery (rat (endogenous in mesenteric artery)) (UniProt Q62976)", "assay": "co-IP; rat mesenteric artery (Fig. S2A); antibody used for precipitation not told in the text shown"}, "[3]": {"target": "VC-Cav1 (Cav1 with the C-terminal half of Venus on its N terminus) (UniProt Q03135)", "assay": "split reporter; BiFC with Venus halves VN173 and VC155; constructs co-expressed in HEK293 cells, confocal microscopy; Venus/Hoechst ratio for Fig. 2D"}, "[4]": {"target": "BKα-VC (VC-tagged α subunit of BKCa channels) (UniProt Q12791)", "assay": "split reporter; BiFC with Venus halves VN173 and VC155; constructs co-expressed in HEK293 cells, confocal microscopy; Venus/Hoechst ratio for Fig. 2D"}, "[5]": {"target": "BKCa channels expressed in HEK293 cells (UniProt Q12791)", "assay": "co-IP; HEK293 cells expressing GFP-JP2 and BKCa channels (Fig. S2B); antibody used for precipitation not told in the text shown"}}, "note": "These are yes or no findings as the source states them, for the method shown. In cells and extracts the contact can be indirect. Some binding calls cover weakened binding; strength is not graded here. For part of these data: Sequences can lack the tags named with a protein.", "data": [{"binder": "B1", "values": [{"measurement": "binding", "setting": "[1]", "value": "binds"}, {"measurement": "binding", "setting": "[2]", "value": "binds"}]}, {"binder": "B2", "values": [{"measurement": "binding", "setting": "[3]", "value": "binds"}, {"measurement": "binding", "setting": "[4]", "value": "binds"}]}, {"binder": "B3", "values": [{"measurement": "binding", "setting": "[3]", "value": "binds"}]}, {"binder": "B4", "values": [{"measurement": "binding", "setting": "[5]", "value": "binds"}]}]}
